# Melanoma cell counts after drug treatment

Values as published with doi:10.1371/journal.pone.0140310, rounded.

Drug key:
NVP-TAE684, 0.4 µM: COc1cc(N2CCC(N3CCN(C)CC3)CC2)ccc1Nc1ncc(Cl)c(Nc2ccccc2S(=O)(=O)C(C)C)n1
bexarotene, 10 µM: C=C(c1ccc(C(=O)O)cc1)c1cc2c(cc1C)C(C)(C)CCC2(C)C
GW2580, 5 µM: COc1ccc(COc2ccc(Cc3cnc(N)nc3N)cc2OC)cc1
etoposide, 0.1 µM: COc1cc([C@@H]2c3cc4c(cc3[C@@H](O[C@@H]3O[C@@H]5CO[C@@H](C)O[C@H]5[C@H](O)[C@H]3O)[C@H]3COC(=O)[C@H]23)OCO4)cc(OC)c1O
selumetinib, 0.075 µM: Cn1cnc2c(F)c(Nc3ccc(Br)cc3Cl)c(C(=O)NOCCO)cc21
palbociclib, 0.2 µM: CC(=O)c1c(C)c2cnc(Nc3ccc(N4CCNCC4)cn3)nc2n(C2CCCC2)c1=O
GSK650394, 0.8 µM: O=C(O)c1ccc(-c2c[nH]c3ncc(-c4ccccc4)cc23)cc1C1CCCC1
ZM336372, 10 µM: Cc1ccc(NC(=O)c2cccc(N(C)C)c2)cc1NC(=O)c1ccc(O)cc1
SNS-314, 0.004 µM: O=C(Nc1cccc(Cl)c1)Nc1ncc(CCNc2ncnc3ccsc23)s1
PF-562271, 0.4 µM: CN(c1ncccc1CNc1nc(Nc2ccc3c(c2)CC(=O)N3)ncc1C(F)(F)F)S(C)(=O)=O
OSU-03012, 5 µM: NCC(=O)Nc1ccc(-n2nc(C(F)(F)F)cc2-c2ccc3c(ccc4ccccc43)c2)cc1
tozasertib, 0.03 µM: Cc1cc(Nc2cc(N3CCN(C)CC3)nc(Sc3ccc(NC(=O)C4CC4)cc3)n2)n[nH]1
PD173074, 0.5 µM: CCN(CC)CCCCNc1ncc2cc(-c3cc(OC)cc(OC)c3)c(NC(=O)NC(C)(C)C)nc2n1
ruxolitinib, 5 µM: N#CC[C@H](C1CCCC1)n1cc(-c2ncnc3[nH]ccc23)cn1
nutlin-3, 0.5 µM: COc1ccc(C2=N[C@@H](c3ccc(Cl)cc3)[C@@H](c3ccc(Cl)cc3)N2C(=O)N2CCNC(=O)C2)c(OC(C)C)c1
erlotinib, 4 µM: C#Cc1cccc(Nc2ncnc3cc(OCCOC)c(OCCOC)cc23)c1
ENMD-2076, 0.2 µM: Cc1cc(Nc2cc(N3CCN(C)CC3)nc(/C=C/c3ccccc3)n2)n[nH]1
A-769662, 10 µM: N#Cc1c(O)c2c(-c3ccc(-c4ccccc4O)cc3)csc2[nH]c1=O
vismodegib, 5 µM: CS(=O)(=O)c1ccc(C(=O)Nc2ccc(Cl)c(-c3ccccn3)c2)c(Cl)c1
nilotinib, 1 µM: Cc1cn(-c2cc(NC(=O)c3ccc(C)c(Nc4nccc(-c5cccnc5)n4)c3)cc(C(F)(F)F)c2)cn1

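The test systems are human melanoma cell lines, treated with a pair of drugs for 72 h and then stained and imaged. Values are the number of DAPI-stained nuclei as a percentage of the DMSO control: 100 is no effect, lower means fewer cells. Concentrations were fixed for each drug; these are the higher of two levels. No replicate spread is given; individual values may be noisy.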 This is part of the screen, not chosen by result.

| Drugs | WM3619 | WM451Lu |
|---|---|---|
| ENMD-2076 + GSK650394 | 73.6 | 84.9 |
| A-769662 + tozasertib | 101 | 94.8 |
| GW2580 + GSK650394 | 90.4 | 47.3 |
| GSK650394 + vismodegib | 77.1 | 97.3 |
| SNS-314 + ZM336372 | 100 | 47.4 |
| etoposide + bexarotene | 68.9 | 89.7 |
| SNS-314 + etoposide | 73.4 | 40.9 |
| bexarotene + ENMD-2076 | 84.7 | 89.3 |
| palbociclib + OSU-03012 | 51.3 | 72.7 |
| ENMD-2076 + NVP-TAE684 | 102 | 82.4 |
| palbociclib + SNS-314 | 90.7 | 46.2 |
| NVP-TAE684 + tozasertib | 81.9 | 79.0 |
| PF-562271 + PD173074 | 105 | 58.5 |
| ruxolitinib + selumetinib | 72.0 | 86.4 |
| PF-562271 + GW2580 | 77.3 | 66.2 |
| nilotinib + bexarotene | 97.4 | 88.6 |
| nutlin-3 + etoposide | 67.9 | 119 |
| ruxolitinib + palbociclib | 52.3 | 58.4 |
| ENMD-2076 + erlotinib | 67.8 | 74.1 |
| A-769662 + palbociclib | 49.8 | 74.8 |
| nilotinib + selumetinib | 56.2 | 46.8 |
| PF-562271 + ruxolitinib | 75.6 | 42.7 |
| erlotinib + vismodegib | 96.0 | 121 |
| vismodegib + etoposide | 71.7 | 94.9 |

The last 2 entries again:

Drugs	WM3619	WM451Lu
erlotinib + vismodegib	96.0	121
vismodegib + etoposide	71.7	94.9